Assay [1] has as its target T1, biotin tagged CTCF (CTCF-bio) (mouse) (UniProt Q61164).
T1 sequence (chain, biotinylated lysine in the C-terminal tag (by BirA)): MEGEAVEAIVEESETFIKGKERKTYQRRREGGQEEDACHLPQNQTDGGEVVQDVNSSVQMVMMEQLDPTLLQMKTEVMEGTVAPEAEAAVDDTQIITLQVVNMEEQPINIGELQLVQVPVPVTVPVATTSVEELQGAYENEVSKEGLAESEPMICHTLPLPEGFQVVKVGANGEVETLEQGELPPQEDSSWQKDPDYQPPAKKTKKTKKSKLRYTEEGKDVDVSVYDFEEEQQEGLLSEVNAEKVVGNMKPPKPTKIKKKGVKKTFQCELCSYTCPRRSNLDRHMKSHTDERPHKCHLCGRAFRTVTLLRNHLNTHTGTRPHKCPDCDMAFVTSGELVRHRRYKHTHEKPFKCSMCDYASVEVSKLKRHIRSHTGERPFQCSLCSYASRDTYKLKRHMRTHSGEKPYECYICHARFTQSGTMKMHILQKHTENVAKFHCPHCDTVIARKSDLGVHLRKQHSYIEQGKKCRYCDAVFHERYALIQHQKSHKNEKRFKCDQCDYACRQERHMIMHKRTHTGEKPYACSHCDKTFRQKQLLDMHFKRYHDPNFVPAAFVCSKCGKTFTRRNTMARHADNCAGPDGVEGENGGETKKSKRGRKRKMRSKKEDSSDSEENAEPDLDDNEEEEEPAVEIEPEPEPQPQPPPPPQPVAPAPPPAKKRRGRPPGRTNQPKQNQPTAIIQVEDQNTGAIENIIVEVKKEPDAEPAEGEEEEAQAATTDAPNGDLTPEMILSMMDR
The assay is described as follows: pull-down; CTCF-bio held on streptavidin-coupled magnetic beads from ES cell nuclear extracts, western blot; IP buffer (100 mmol/l NaCl, 0.3% NP40, 20 mmol/l Hepes pH8, 0.2 mmol/l EDTA, 10 mmol/l MgCl2); extracts with or without benzonase for 2 hours at 4°C.

Chains of the proteins cited; added tags and fusions are not shown.
UniProt O35134: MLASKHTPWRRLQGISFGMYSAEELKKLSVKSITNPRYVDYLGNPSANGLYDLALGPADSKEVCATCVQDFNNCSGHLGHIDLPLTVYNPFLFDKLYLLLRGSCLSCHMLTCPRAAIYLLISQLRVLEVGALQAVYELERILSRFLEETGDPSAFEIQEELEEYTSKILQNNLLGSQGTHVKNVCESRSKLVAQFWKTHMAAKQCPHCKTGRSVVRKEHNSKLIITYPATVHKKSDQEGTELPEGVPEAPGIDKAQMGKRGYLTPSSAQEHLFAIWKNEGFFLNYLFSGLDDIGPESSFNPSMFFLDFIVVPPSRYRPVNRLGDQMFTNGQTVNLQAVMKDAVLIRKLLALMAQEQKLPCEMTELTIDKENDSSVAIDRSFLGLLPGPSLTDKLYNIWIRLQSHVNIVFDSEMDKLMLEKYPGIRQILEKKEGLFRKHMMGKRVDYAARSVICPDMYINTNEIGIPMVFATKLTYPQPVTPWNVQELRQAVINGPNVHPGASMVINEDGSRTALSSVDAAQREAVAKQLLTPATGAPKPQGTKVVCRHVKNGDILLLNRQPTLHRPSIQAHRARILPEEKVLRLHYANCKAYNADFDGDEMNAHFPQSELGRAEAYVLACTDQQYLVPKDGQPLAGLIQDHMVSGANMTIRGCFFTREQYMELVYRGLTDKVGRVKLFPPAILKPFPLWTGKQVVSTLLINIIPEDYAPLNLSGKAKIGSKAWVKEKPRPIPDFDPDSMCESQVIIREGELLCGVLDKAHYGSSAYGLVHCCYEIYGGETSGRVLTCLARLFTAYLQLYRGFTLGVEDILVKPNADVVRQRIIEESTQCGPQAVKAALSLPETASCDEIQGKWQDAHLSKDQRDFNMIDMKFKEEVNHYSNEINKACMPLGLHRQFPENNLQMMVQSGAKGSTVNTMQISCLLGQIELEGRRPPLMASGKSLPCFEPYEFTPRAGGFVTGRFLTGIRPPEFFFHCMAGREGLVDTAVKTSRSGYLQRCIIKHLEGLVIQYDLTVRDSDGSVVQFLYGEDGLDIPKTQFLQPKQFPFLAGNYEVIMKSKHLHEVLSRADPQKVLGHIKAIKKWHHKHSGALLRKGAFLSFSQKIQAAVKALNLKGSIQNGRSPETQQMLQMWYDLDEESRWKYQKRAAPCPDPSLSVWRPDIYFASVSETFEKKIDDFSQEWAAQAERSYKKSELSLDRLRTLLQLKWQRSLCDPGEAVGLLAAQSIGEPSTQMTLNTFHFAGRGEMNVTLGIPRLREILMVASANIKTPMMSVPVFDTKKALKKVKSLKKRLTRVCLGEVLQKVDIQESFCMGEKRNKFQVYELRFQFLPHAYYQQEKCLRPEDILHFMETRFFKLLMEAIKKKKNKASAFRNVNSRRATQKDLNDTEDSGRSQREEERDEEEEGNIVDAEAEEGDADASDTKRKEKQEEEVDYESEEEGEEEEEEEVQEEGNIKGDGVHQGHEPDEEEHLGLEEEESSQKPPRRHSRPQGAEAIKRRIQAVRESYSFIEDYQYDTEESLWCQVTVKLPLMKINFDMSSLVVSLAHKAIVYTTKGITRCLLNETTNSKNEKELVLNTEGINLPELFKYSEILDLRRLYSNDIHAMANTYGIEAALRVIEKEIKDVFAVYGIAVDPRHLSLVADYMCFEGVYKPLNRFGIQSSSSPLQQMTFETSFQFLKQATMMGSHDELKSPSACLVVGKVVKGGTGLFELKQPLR
UniProt P11103: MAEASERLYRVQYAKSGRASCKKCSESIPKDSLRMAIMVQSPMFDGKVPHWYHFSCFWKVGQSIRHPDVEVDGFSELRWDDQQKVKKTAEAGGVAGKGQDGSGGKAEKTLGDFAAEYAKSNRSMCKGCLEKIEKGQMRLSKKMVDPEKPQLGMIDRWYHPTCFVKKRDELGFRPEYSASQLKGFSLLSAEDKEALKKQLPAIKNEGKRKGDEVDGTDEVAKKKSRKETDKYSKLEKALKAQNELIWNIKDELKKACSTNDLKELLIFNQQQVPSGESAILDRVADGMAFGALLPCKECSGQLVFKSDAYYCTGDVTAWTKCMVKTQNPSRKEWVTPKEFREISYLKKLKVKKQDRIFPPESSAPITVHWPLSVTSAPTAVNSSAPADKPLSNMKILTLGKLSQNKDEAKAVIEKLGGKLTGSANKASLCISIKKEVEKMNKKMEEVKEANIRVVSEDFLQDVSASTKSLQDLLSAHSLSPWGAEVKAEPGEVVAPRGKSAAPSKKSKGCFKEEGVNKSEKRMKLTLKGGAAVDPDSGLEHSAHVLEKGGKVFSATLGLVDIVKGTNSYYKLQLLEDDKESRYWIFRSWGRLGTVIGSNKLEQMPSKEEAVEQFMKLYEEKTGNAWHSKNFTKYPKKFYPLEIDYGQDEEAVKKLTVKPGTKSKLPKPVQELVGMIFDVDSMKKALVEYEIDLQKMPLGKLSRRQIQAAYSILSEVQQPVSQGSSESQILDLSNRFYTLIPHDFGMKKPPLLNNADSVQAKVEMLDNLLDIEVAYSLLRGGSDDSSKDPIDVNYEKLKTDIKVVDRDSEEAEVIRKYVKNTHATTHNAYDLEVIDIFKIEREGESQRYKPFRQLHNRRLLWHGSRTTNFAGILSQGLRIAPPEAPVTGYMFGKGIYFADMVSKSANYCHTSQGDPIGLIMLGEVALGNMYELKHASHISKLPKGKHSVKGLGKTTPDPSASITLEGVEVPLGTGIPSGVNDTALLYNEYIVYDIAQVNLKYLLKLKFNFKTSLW
UniProt Q61937: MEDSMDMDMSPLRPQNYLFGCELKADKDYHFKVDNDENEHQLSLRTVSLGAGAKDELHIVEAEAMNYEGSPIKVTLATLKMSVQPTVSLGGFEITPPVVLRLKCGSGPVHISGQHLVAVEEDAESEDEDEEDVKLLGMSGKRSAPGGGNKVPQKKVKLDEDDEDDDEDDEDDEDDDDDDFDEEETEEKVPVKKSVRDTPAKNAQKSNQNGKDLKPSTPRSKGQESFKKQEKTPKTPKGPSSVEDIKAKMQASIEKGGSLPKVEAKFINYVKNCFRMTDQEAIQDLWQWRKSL

In assay [2] the target is T1, biotin tagged CTCF (CTCF-bio) (mouse). Briefly: pull-down; not shown; CTCF-bio and UBF in thymus.
Assay [3] shares this target. The assay is described as follows: pull-down; streptavidin pull-down from lung nuclear extracts of mice expressing CTCF-bio, western blot.
Assay [4] concerns the target T2, untagged CTCF (CCCTC binding factor) (mouse (endogenous in ES cells)) (UniProt Q61164).
T2 sequence: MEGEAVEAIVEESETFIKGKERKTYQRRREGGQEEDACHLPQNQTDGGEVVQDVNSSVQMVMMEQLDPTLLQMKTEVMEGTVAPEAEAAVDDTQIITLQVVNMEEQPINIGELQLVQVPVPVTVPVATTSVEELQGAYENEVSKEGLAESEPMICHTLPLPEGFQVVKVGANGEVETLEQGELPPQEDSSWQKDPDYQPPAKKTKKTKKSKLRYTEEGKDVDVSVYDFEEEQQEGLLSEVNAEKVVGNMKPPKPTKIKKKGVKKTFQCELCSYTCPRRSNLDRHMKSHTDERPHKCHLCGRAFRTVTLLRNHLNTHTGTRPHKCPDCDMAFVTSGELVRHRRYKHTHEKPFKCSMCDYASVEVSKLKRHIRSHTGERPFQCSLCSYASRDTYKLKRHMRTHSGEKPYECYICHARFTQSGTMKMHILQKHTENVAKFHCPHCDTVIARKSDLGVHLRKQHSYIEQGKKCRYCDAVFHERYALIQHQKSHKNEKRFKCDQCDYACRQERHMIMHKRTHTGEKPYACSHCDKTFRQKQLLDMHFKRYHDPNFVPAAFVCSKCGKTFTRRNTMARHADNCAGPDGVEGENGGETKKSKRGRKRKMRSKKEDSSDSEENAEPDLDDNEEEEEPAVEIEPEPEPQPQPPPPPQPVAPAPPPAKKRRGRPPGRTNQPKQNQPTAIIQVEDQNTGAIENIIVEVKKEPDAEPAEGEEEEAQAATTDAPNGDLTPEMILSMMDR
The assay is described as follows: co-IP; anti-CTCF antiserum on extracts of ES cells expressing both CTCF and CTCF-bio; protein-A sepharose, 4°C, wash buffer 100 mmol/l NaCl, 20 mmol/l Tris pH7.5, 0.3% NP40.

A further assay concerns the target T3, Flag-tagged UBF (mouse) (UniProt P25976).
T3 sequence: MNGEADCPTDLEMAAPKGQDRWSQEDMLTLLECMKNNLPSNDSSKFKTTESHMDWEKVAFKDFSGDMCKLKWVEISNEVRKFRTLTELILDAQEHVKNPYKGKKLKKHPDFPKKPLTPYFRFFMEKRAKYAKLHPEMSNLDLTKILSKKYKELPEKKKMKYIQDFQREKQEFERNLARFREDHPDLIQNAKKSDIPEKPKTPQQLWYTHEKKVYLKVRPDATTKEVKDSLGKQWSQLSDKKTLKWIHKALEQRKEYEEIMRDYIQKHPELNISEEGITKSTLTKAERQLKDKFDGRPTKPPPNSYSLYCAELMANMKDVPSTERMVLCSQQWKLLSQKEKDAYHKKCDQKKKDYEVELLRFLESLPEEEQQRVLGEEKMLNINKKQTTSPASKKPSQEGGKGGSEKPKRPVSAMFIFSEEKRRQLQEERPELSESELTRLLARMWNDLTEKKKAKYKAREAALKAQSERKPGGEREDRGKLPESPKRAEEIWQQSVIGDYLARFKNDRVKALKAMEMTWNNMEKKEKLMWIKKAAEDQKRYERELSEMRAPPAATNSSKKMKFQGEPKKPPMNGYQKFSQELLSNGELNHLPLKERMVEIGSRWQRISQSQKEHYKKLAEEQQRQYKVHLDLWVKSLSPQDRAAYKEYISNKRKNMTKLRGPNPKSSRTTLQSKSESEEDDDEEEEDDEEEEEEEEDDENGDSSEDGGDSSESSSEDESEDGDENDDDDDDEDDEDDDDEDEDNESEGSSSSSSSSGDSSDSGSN
Briefly: co-IP; anti-Flag M2 agarose, 3h at 4°C, extracts of 293T cells transfected with Flag-UBF alone or with CTCFL; western blot. (In western blotting, separated proteins are transferred to a membrane and probed.)

Results are given in words; binding and its absence hold for the method and conditions named. In cells and extracts the contact can be indirect. Some entries that bind do so weakly or less than the wild type. Sequences can lack the tags named with a protein.

On to “large subunit of RNA polymerase I (RPA194) (from UniProt O35134 1-1717)”, for which, in assay [1], the binding result is recorded as “binds”.

On to “poly(ADP-ribose) polymerase (Parp)1 (from UniProt P11103 1-1013)”, for which, in assay [1], the binding entry is recorded as “binds”.

For “nucleophosmin (from UniProt Q61937 1-292)”, in assay [1], the binding entry is given as “binds”.

B1: upstream binding factor (UBF) (protein, UniProt P25976-2 1-728)
chain: MNGEADCPTDLEMAAPKGQDRWSQEDMLTLLECMKNNLPSNDSSKFKTTESHMDWEKVAFKDFSGDMCKLKWVEISNEVRKFRTLTELILDAQEHVKNPYKGKKLKKHPDFPKKPLTPYFRFFMEKRAKYAKLHPEMSNLDLTKILSKKYKELPEKKKMKYIQDFQREKQEFERNLARFREDHPDLIQNAKKSDIPEKPKTPQQLWYTHEKKVYLKVRPDEIMRDYIQKHPELNISEEGITKSTLTKAERQLKDKFDGRPTKPPPNSYSLYCAELMANMKDVPSTERMVLCSQQWKLLSQKEKDAYHKKCDQKKKDYEVELLRFLESLPEEEQQRVLGEEKMLNINKKQTTSPASKKPSQEGGKGGSEKPKRPVSAMFIFSEEKRRQLQEERPELSESELTRLLARMWNDLTEKKKAKYKAREAALKAQSERKPGGEREDRGKLPESPKRAEEIWQQSVIGDYLARFKNDRVKALKAMEMTWNNMEKKEKLMWIKKAAEDQKRYERELSEMRAPPAATNSSKKMKFQGEPKKPPMNGYQKFSQELLSNGELNHLPLKERMVEIGSRWQRISQSQKEHYKKLAEEQQRQYKVHLDLWVKSLSPQDRAAYKEYISNKRKNMTKLRGPNPKSSRTTLQSKSESEEDDDEEEEDDEEEEEEEEDDENGDSSEDGGDSSESSSEDESEDGDENDDDDDDEDDEDDDDEDEDNESEGSSSSSSSSGDSSDSGSN
Consider B1, for which the binding result in assay [2], in assay [3], in assay [1] and in assay [4] was “binds” throughout.

B2: CTCFL (overexpressed, not tagged) (protein, UniProt A2APF3 1-636)
chain: MAAAEVPVPSGYFTQIKEQKLKPGDLEEEKEEDGVQRVEAQEGVVKEVEAENSCLLLEARAPVESDRRILTLQTVHLESQDVHLQGLGWLSVPHSEELSGTVPEAEGILQLPSVLWLDPEPQLSLQHCVTVSIPEELYPPEELQRIHFHLLRENVLMAEENPELTPDLDESTALKKPEEDEKDQLPPQGETDKREERLLLLEMKPKEGKDDEIVLTISHLSLEEQQDPPAANQTSVPGAKAAKPKRRRQTKGKPQSFQCDTCPFTSSKLSTFNRHIKIHSNERPHLCHLCLKAFRTVTLLRNHVNTHTGTRPHKCRDCDMAFVTSGELVRHRRYKHTYEKPFKCSLCKYASVEASKMKRHIRSHTGERPFQCCQCAYASRDSYKLKRHMRTHSGEKPYECPTCHVRFTQSGTMKIHIAQKHGENVPKYECPHCATIIARKSDLRVHLRNLHSQSPEEMKCRYCPAGFHERYALIQHQRTHKNEKKFKCKQCDYACKQERCLKAHMRMHTGEKPFSCLACNKHFRQKQLLTVHLRKYHDPNFVPNLHLCLKCDKRFSRWSNLQRHRKKCDPEHETLAPNKDRRPVTRTQASEGEAGHKEGEPQCPGEQALGHQGEAAGSQSPDHGLTCEIIFNMMDK
For B2, the binding result in the assay with Flag-tagged UBF (mouse) was “binds”.

B3: endogenous CTCF of 293T cells (protein, UniProt P49711 1-727)
chain: MEGDAVEAIVEESETFIKGKERKTYQRRREGGQEEDACHLPQNQTDGGEVVQDVNSSVQMVMMEQLDPTLLQMKTEVMEGTVAPEAEAAVDDTQIITLQVVNMEEQPINIGELQLVQVPVPVTVPVATTSVEELQGAYENEVSKEGLAESEPMICHTLPLPEGFQVVKVGANGEVETLEQGELPPQEDPSWQKDPDYQPPAKKTKKTKKSKLRYTEEGKDVDVSVYDFEEEQQEGLLSEVNAEKVVGNMKPPKPTKIKKKGVKKTFQCELCSYTCPRRSNLDRHMKSHTDERPHKCHLCGRAFRTVTLLRNHLNTHTGTRPHKCPDCDMAFVTSGELVRHRRYKHTHEKPFKCSMCDYASVEVSKLKRHIRSHTGERPFQCSLCSYASRDTYKLKRHMRTHSGEKPYECYICHARFTQSGTMKMHILQKHTENVAKFHCPHCDTVIARKSDLGVHLRKQHSYIEQGKKCRYCDAVFHERYALIQHQKSHKNEKRFKCDQCDYACRQERHMIMHKRTHTGEKPYACSHCDKTFRQKQLLDMHFKRYHDPNFVPAAFVCSKCGKTFTRRNTMARHADNCAGPDGVEGENGGETKKSKRGRKRKMRSKKEDSSDSENAEPDLDDNEDEEEPAVEIEPEPEPQPVTPAPPPAKKRRGRPPGRTNQPKQNQPTAIIQVEDQNTGAIENIIVEVKKEPDAEPAEGEEEEAQPAATDAPNGDLTPEMILSMMDR
With B3, the binding entry with Flag-tagged UBF (mouse) is “binds”.

The values are drawn from article PMC2993708.
